Measured values taken from PMC9112550, “Optimization of the antimicrobial peptide Bac7 by deep mutational scanning” (BMC Biology, 2022).

System: E. coli TOP10
Experiment: Deep mutational scanning, site-saturation Bac7_1-23 library, intracellular self-screening with NGS
Format: cell-based
Conditions: site-saturation library, 156,779 variants; rank 1 = most active
Protocol: A focused strategy was pursued to generate diversity at positions 5, 18, 19, and 20 in the Bac7_1-23 peptide. […] Degeneration was introduced by using the QuikChange technique, amplifying the pBAD plasmid containing the Bac7_1-23 gene using a mixture of 20 oligonucleotides (Additional file 1: Table S1) at a final concentration of 0.3 μM and Phusion® High-Fidelity PCR Master Mix in HF buffer. The amplification was performed using 20 cycles of 98°C for 10 s, 60°C for 15 s, and 72°C for 10 s. The PCR product was treated with the enzyme Dpn1 to remove the template plasmid and subsequently purified. The purified product was used to transform 20 μl of CloneCatcher™ Gold DH5G Electrocompetent E. coli (Genlantis, Burlington, USA) cells using electroporation.
To assess the antimicrobial activity of multiple peptides in parallel when expressed intracellularly in E. coli TOP10, previously prepared aliquots containing E. coli plasmid libraries created by either random mutagenesis or site-saturation mutagenesis were used. For both approaches, three aliquots containing approximately 500 million cells each of E. coli TOP10 harboring peptide-encoding DNA sequences on the pBAD plasmid were thawed and added to three 1-l baffled shake flasks containing 100 ml of LB medium + 100 μg ml^−1 carbenicillin. The cultures were grown for roughly 7 h at 37°C.

Row | Sequence | Rank by antimicrobial activity
1 | RRIRYRPPRLPRPRPRPQALPRP [site-saturation library peptide ID 54096] | 3
2 | RRIRYRPPRLPRPRPRPCKSPRP [site-saturation library peptide ID 53741] | 5
3 | RRIRDRPPRLPRPRPRPIKDPRP [site-saturation library peptide ID 5521] | 4
